This assay is described as follows: qHTS Assay to Find Inhibitors of Chronic Active B-Cell Receptor Signaling. Particulars: ABC-DLBCL IkBa-CBG/CBR reporter, luminescence ratio (green luciferase fused to IkBa over red control in TMD8 lymphoma cells), 4 h. The method in brief:
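TMD8 human ABC-DLBCL cells with doxycycline-inducible IκBα–green luciferase fusion and unfused red luciferase, in 0.5% FBS medium; compounds up to 46 uM, 4 h at 37C. Green/red luminescence ratio, filter-overlap corrected, fitted to concentration-response curves.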
A general note: Quantitative high-throughput screening tests each substance at several concentrations.

The mark [1] stands for this setting: measured here: CBR red luminescence, cell number.
Setting [2] is: measured here: IkBa-CBG green luminescence.

This is one part of the list. Shown are side measurements of this screen, not its main read-out; they come without a call. Compounds called inactive in the main read-out are mostly missing here. The note in brackets gives the kind of curve behind each potency; many fits are weak.

The results in this text go back to PubChem BioAssay AID493014 (National Center for Advancing Translational Sciences (NCATS), 2011).

For `Cc1cc(/C=C2/NC(=O)NC2=O)c(C)n1-c1ccc(C#N)cc1`, the AC50 (usually the concentration giving half of the maximal activity seen) under setting [1] is 17.8 µM [rising, single point].

Regarding `Cc1nn(C)c(=O)n1-c1ccc(Oc2ccccc2)cc1`, under setting [1], the AC50 was 29.1 µM [rising, single point].

Take `CCOC(=O)N1CC=C2C(C#N)=C(N)C(C#N)(C#N)[C@H](c3cccs3)C2C1` (some centres not stated): under setting [1], the AC50 was 14.6 µM [falling, single point].

For `c1csc(-c2nc(NCCCN3CCOCC3)c3ccccc3n2)c1`, under setting [1], the AC50 is 35.5 µM [falling, single point].

On to `c1ccc(CNc2nc(NCc3ccco3)nc(N3CCOCC3)n2)cc1`, for which the AC50 reads like this: under setting [1], 1.26 µM [rising, partial curve, poor fit]; under setting [2], 11.2 µM [falling, partial curve, poor fit].

On to `COC1CCCCC1Nc1cccc(SC)c1` (configuration not stated), for which, under setting [1], the AC50 was 29.1 µM [rising, single point].

As for `O=C(Nc1nc2cc3c(cc2s1)OCCO3)c1cccs1`, the AC50 under setting [1] was 2.24 µM [falling, full curve].

Regarding `CCCCCCCNC(=O)CC(NS(=O)(=O)c1ccc(NC(C)=O)cc1)C(C)C` (configuration not stated), the AC50 under setting [1] was 9.2 µM [rising, partial curve].

With `CN1CCN2c3ccccc3Cc3ccccc3C2C1` (configuration not stated), the AC50 under setting [2] was 31.6 µM [rising, partial curve, poor fit].

For `CC(C)c1[nH]nc2c1C(c1cccs1)C(C#N)=C(N)O2` (configuration not stated), the AC50 runs as follows: under setting [1], 4.11 µM [falling, full curve]; under setting [2], 23.1 µM [rising, partial curve, poor fit].

Regarding `Cc1ccc(NC(=O)NC2C(NC(=O)Nc3ccc(C)cc3)N(C)C(=O)N2C)cc1` (configuration not stated), the AC50 under setting [1] is 9.2 µM [rising, partial curve].

On to `CCOC(=O)N1CCC(=NNC(=O)Cn2ccc(C(F)(F)F)n2)CC1`, for which, under setting [1], the AC50 is 35.5 µM [falling, single point].

On to `COc1ccc(OCC(=O)Nc2cc(OC)ccc2N2CCCCC2)cc1`, for which the AC50 under setting [1] is 1 µM [falling, full curve].

For `O=C(NCCCN1CCOCC1)[C@@H]1CSC2c3ccccc3C(=O)N21` (some centres not stated), the AC50 under setting [1] was 2.31 µM [falling, single point].

Take `Cc1noc(NS(=O)(=O)c2ccc(NC(=O)C34CC5CC(C3)CC(n3cnc(Cl)n3)(C5)C4)cc2)c1C`: the AC50 under setting [1] was 1.64 µM [falling, partial curve, poor fit].

Consider `COC(=O)C1=C(C(=O)OC)[C@@H]2Nc3ccccc3[C@@]23C[C@@H](C(=O)OC)N(C(C)=O)C3=N1`, for which the concentration at half-maximal activity (AC50) under setting [1] was 15.8 µM [rising, single point].

`COc1cc(SC)ccc1C(=O)OCc1nc2ccsc2c(=O)[nH]1`: the AC50 under setting [2] is 14.6 µM [rising, partial curve, poor fit].

On to `CC1CCCCN1S(=O)(=O)c1cnc(Cl)c(Br)c1` (configuration not stated), for which the AC50 under setting [1] is 13 µM [falling, partial curve].

Take `CCS(=O)(=O)n1nc(-c2ccc(C)cc2)nc1N`: under setting [1], the AC50 was 16.4 µM [rising, single point].

On to `CCc1nnc(NS(=O)(=O)c2ccc(NC(=O)/C=C/c3ccc(OC)cc3OC)cc2)s1`, for which, under setting [1], the AC50 is 2.31 µM [falling, full curve].

Turning to `CC(=O)Nc1ccc(S(=O)(=O)N/N=C/c2ccc(C)s2)cc1`, the AC50 under setting [1] was 2.91 µM [rising, full curve].

Consider `O=C(Nc1nnc(C(F)(F)F)s1)c1c(F)cccc1F`, for which the concentration at half-maximal activity (AC50) under setting [1] is 14.1 µM [falling, single point].

Regarding `CC(C)(C)[C@H]1C=C(C(=O)N2CCN(Cc3ccccc3)CC2)O[C@@H](OCCCCO)C1`, the AC50 under setting [1] is 20 µM [falling, single point].

`COc1cccc(NC(=O)Cc2nnc(SCC(=O)c3ccccc3)n2C)c1`: the AC50 under setting [1] is 29.1 µM [falling, single point].

As for `CC(C)NC(=O)C(=O)c1cn(C)c2ccccc12`, the AC50 under setting [1] was 10 µM [falling, partial curve, poor fit].

Turning to `COC(CNC(=O)c1cc(C)nn1-c1ccccc1)OC`, the AC50 under setting [1] was 29.1 µM [falling, single point].

As to `O=C(NNC(=O)c1ccccc1Cl)c1ccc2c(c1)OCCO2`, the concentration at half-maximal activity (AC50) under setting [1] was 20.6 µM [falling, single point].

Turning to `O=C(O)CCC(=O)c1ccc(-c2ccccc2)cc1`, the AC50 is 11.2 µM [falling, single point] under setting [1] and 0.355 µM [rising, partial curve, poor fit] under setting [2].

With `CNc1sc(C(=O)c2cccs2)c(N)c1-c1nc2ccccc2s1`, the AC50 was 17.8 µM [falling, single point] under setting [1] and 22.4 µM [falling, single point] under setting [2].

With `CCCCN(CC)C(=O)Cn1ncc2c1-c1cc(C)ccc1OC2`, the AC50 under setting [1] was 1.84 µM [falling, single point].

`CC(C)N1CCN(S(=O)(=O)c2ccc3ccccc3c2)CC1`: the AC50 under setting [1] is 11.2 µM [falling, partial curve].

As for `CC(C)(C)OC(=O)NC(Cc1ccccc1)C(=O)N1CCC(C(=O)NCC(=O)Nc2ccc(F)cc2)CC1` (configuration not stated), the AC50 under setting [1] is 0.891 µM [falling, full curve].

With `COc1ccc(OC)c(/C=C/C(=O)NCCc2nc3ccccc3[nH]2)c1`, under setting [1], the AC50 was 20 µM [falling, partial curve, poor fit].

`CC(C)CN1C(=O)c2ccc(C(=O)Nc3ccccc3C(=O)O)cc2C1=O`: the AC50 under setting [1] was 12.6 µM [falling, partial curve, poor fit].

Turning to `CC(=O)Nc1ccccc1-c1nc2ccc(C(=O)N3CCN(c4cc(C)ccc4C)CC3)cc2[nH]c1=O`, the AC50 under setting [1] was 6.51 µM [rising, single point].

`COc1ccc(NC(=O)c2cccc(S(=O)(=O)NCc3ccco3)c2)c(OC)c1`: under setting [1], the AC50 was 1.16 µM [falling, partial curve, poor fit].

Regarding `CC/C(=C\C(=O)c1ccncc1)Nc1ccc(O)cc1`, the AC50 under setting [2] is 17.8 µM [falling, partial curve, poor fit].

Turning to `Cc1ccc(NC(=O)C2C3CCCCC32)cc1[N+](=O)[O-]` (configuration not stated), the AC50 under setting [1] is 10 µM [rising, partial curve, poor fit].

As for `O=C(NC1CCN(C(=S)Nc2ccccc2)CC1)C1CCCCC1`, the AC50 under setting [1] is 2.51 µM [rising, partial curve].

With `CCN1C=C(Cc2ccccc2C)C2=C(C1)C(c1ccccc1C)C(C#N)=C(N)O2` (configuration not stated), under setting [1], the AC50 was 8.2 µM [falling, partial curve, poor fit].

As to `COc1cc([N+](=O)[O-])ccc1-c1ccc(/C=N/NC(N)=O)o1`, the AC50 under setting [1] is 7.94 µM [rising, partial curve, poor fit].

As to `Cc1nn(-c2ccc(N3CCCCC3)nn2)c(C)c1CCC(=O)Nc1ccc(F)c(F)c1`, under setting [1], the AC50 is 28.2 µM [falling, single point].

On to `COC(=O)[C@@H]1[C@@H](C#N)C2(c3ccccc3-c3ccccc32)N(c2ccc(Cl)cc2)N1C#N`, for which the AC50 is, setting by setting: under setting [1], 3.66 µM [falling, full curve, poor fit]; under setting [2], 29.1 µM [falling, partial curve, poor fit].

For `COc1ccc(N/N=C(/Oc2ccc([N+](=O)[O-])cc2)C(C)=O)cc1`, the AC50 reads like this: under setting [1], 20.6 µM [falling, single point]; under setting [2], 16.4 µM [rising, partial curve, poor fit].

As for `CCc1nc2ccccc2nc1N1CCN(S(=O)(=O)c2c(C)cc(Cl)cc2C)CC1`, the AC50 under setting [1] was 4.47 µM [rising, single point].

`O=C(COc1ccc(Br)cc1)Nc1nnc(C2CC2)s1`: the AC50 under setting [1] is 4.61 µM [rising, single point].

`COc1ccccc1NC(=O)C(=O)c1cn(CC(=O)N2CCOCC2)c2ccccc12`: under setting [1], the AC50 is 1.26 µM [falling, partial curve, poor fit].

In the case of `C[C@@H]1CC[C@]2(C(=O)O)CC[C@]3(C)C(=CCC4[C@]56CC[C@@](O)(OC5)C(C)(C)C6CC[C@]43C)C2[C@H]1C` (some centres not stated), under setting [1], the AC50 was 5.8 µM [falling, partial curve].

Regarding `Oc1cccc(Nc2ncnc3c2oc2ccccc23)c1`, the AC50 under setting [1] is 10 µM [falling, partial curve].

In the case of `CCOC(=O)c1ccc(NC(=S)N2CCSC2c2ccc(Cl)cc2)cc1` (configuration not stated), under setting [1], the AC50 is 20.6 µM [falling, single point].

In the case of `CCN(CC)C(=O)CSc1ncnc2c(-c3cccs3)nsc12`, under setting [1], the AC50 was 14.6 µM [falling, partial curve, poor fit].

As to `COc1cccc(C(C)NC(=O)c2c(F)cccc2Cl)c1` (configuration not stated), the AC50 under setting [1] was 3.26 µM [rising, single point].

`Cc1ccc(NC(=O)Cn2nc(-c3ccccc3)nc(Cc3ccccc3)c2=O)cc1`: the AC50 under setting [1] was 3.16 µM [falling, partial curve, poor fit].

For the compound `O=c1c2ccccc2nc2ccc(NCc3cccs3)nn12`, the AC50 under setting [1] was 1.41 µM [falling, full curve].

As for `O=C(Nc1ccc2c(c1)OCO2)c1ccc(N2C(=O)c3ccccc3C2=O)cc1`, under setting [1], the AC50 was 6.51 µM [falling, single point].

With `Cc1cc(C(=O)Nc2c(F)cc(F)cc2Br)n(-c2ccccc2)n1`, the AC50 under setting [1] was 14.1 µM [rising, partial curve, poor fit].

For the compound `O=C(NNC(=O)C12CC3CC(CC(C3)C1)C2)c1ccccn1`, the AC50 under setting [1] was 20 µM [rising, partial curve] and the AC50 under setting [2] was 20 µM [falling, single point].

For the compound `CCOc1ccccc1NC(=O)C(OC(=O)c1cnccn1)c1ccccc1` (configuration not stated), under setting [1], the AC50 is 16.4 µM [falling, partial curve, poor fit].

`Cc1ccc(S(=O)(=O)NCC(=O)OCC(=O)Nc2cccc(S(=O)(=O)NC3=NCCCCC3)c2)cc1`: under setting [1], the AC50 is 3.98 µM [falling, full curve, poor fit].

Turning to `CCC(C)C(=O)Nc1nc(C)c(-c2csc(Nc3cc(Cl)ccc3OC)n2)s1` (configuration not stated), under setting [1], the AC50 is 8.91 µM [falling, partial curve, poor fit].
